# According to PubChem BioAssay AID2549 (National Center for Advancing Translational Sciences (NCATS), 2010):
# Protein sequences, listed by entry. Tags and fused reporters are not part of them. Lines headed by an entry give the natural chain unless they say otherwise; changes in a name come on top.
# UniProt P46063: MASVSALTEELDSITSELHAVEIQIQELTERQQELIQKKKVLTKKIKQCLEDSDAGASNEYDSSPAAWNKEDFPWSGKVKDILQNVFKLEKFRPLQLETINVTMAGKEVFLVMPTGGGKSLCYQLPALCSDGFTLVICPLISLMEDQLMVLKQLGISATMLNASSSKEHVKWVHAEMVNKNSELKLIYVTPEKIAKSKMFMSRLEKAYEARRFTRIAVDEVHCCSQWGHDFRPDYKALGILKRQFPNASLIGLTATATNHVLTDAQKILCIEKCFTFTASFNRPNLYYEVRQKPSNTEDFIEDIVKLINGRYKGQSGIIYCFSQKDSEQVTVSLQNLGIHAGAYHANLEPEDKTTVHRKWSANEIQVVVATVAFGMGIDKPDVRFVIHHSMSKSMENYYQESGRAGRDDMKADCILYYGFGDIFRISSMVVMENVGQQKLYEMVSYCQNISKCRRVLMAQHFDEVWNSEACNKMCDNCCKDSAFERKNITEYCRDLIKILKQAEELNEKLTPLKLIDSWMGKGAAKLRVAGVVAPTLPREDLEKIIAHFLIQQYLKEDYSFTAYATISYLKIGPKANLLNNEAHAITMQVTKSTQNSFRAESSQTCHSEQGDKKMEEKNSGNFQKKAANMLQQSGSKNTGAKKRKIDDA
# In all, about 240,000 compounds went through this assay and about 1,300 (0.54%) were called active. Inconclusive results, whose numbers are uncertain, are shown with a selection of clear calls. Calls come from the whole dose curve; as a rule, active = well fitted inhibition curve with a large enough effect; inconclusive = small, poorly fitted or top-dose-only effect; inactive = flat fitted curve, though single readings scatter. Potencies of inconclusive entries are doubtful fits and often do not repeat.
# Molecular target: ATP-dependent DNA helicase Q1 (Homo sapiens) (UniProt P46063)
# Assay: qHTS Assay for Inhibitors of RecQ-Like Dna Helicase 1 (RECQ1); note: nearly all actives have a fitted effect of over 30% in size;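 for activity, negative = inhibition: plate controls were vehicle for no effect and no enzyme for full effect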
# Conditions: RECQ1 DNA unwinding, red fluorescence kinetic read; activity, negative = inhibition: at 57.3 µM (top of the series); series mostly up to 57.3 µM
# Method in brief: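 50 nM RECQ1T1 preincubated 15 min with compound in Tris pH 8.0 buffer with MgCl2, DTT, Tween-20 and 2.5 ug/ml poly(dI-dC); started with 200 nM TAMRA/BHQ-2 forked duplex and 2 mM ATP. Unwinding read as fluorescence (525/598 nm), two reads 2 h apart.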
# Potency is the fitted concentration of half-maximal effect.
Structure (SMILES),Potency,"activity, negative = inhibition",outcome
COC(=O)c1c(NC(=O)CN2C(=O)c3ccccc3C2=O)sc(Cc2ccc3c(c2)OCO3)c1C,"inconclusive: 3.98 µM [inhibitor, single point]",,
CCOC(=O)c1c(N)sc(=S)c2c1CCC2,"inconclusive: 39.8 µM [inhibitor, single point]",,
Oc1ccccc1-n1c(-c2ccccc2)ccc1-c1ccccc1,,inconclusive: -30.2% [inhibitor],
CCOC(=O)c1nc(N)c(C(=O)OCC)[nH]1,"inconclusive: 5.01 µM [inhibitor, full curve]",,
Oc1ccc(N=Cc2ccc(OCc3ccccc3)cc2)cc1,"inconclusive: 39.8 µM [inhibitor, single point]",,
COc1ccc(-n2cccc2/C=C2\C(=N)N3N=C(c4ccco4)SC3=NC2=O)cc1,"inconclusive: 31.6 µM [inhibitor, single point]",,
COCCOC(=O)C1=C(C)NC(=O)NC1c1ccc(-c2cc(Cl)ccc2Cl)o1 (stereo not drawn),"inconclusive: 5.62 µM [inhibitor, partial curve, poor fit]",,
CC(/C=C/C1(O)C(C)CC(O)CC1(C)C)OC1OC(CO)C(O)C(O)C1O (stereo not drawn),"inconclusive: 31.6 µM [inhibitor, single point]",,
C=C(C(=O)OC)C(NC(=O)OC)c1ccccc1 (stereo not drawn),,,inactive
O=C(Nc1nnc(C2CC2)s1)C1Cc2ccccc2CN1C(=O)c1ccco1 (stereo not drawn),"inconclusive: 31.6 µM [inhibitor, single point]",,
O=C(O)c1ccc(/C=N/Nc2ccc(S(=O)(=O)N3CCCC3)cc2[N+](=O)[O-])cc1,,inactive: 7.68%,
O=C(OC1Cc2c(O)cc(O)cc2OC1c1cc(O)c(O)c(O)c1-c1c(C2Oc3cc(O)cc(O)c3CC2O)cc(O)c(O)c1O)c1cc(O)c(O)c(O)c1 (stereo not drawn),active: 2.51 µM,,
Cc1nc2c(ccc3nc(NC(=O)Cc4cccc5ccccc45)sc32)s1,,inactive: 7.23%,
N=C1/C(=C/c2ccc(-c3cccc(C(=O)O)c3)o2)C(=O)N=C2SC=C(c3ccccc3)N12,"inconclusive: 31.6 µM [inhibitor, single point]",,
CCc1ccccc1NC(=O)c1cc(=O)c2ccccc2o1,"inconclusive: 6.31 µM [inhibitor, single point]",,
NC1=NC(=O)C(Cc2cccc(Cl)c2Cl)S1 (stereo not drawn),"inconclusive: 39.8 µM [inhibitor, single point]",,
C=C(C)C(O)/C=C/c1ccccc1OC (stereo not drawn),,,inactive [at 11.5 µM]
O=C1c2ccccc2C(=O)N1CCSc1ncn[nH]1,,inactive: -2.66%,
COc1ccc(OCCCON2C(=O)c3ccccc3C2=O)cc1,"inconclusive: 0.141 µM [inhibitor, full curve, poor fit]",,
Cc1nc2c(c(=O)n1CCC1=CCCCC1)c1nc3ccccc3nc1n2/N=C/c1ccco1,active: 28.2 µM,,
CCNc1ccc2c(Cl)cc(=O)oc2c1,active: 35.5 µM,,
CCOC(=O)C1(C(F)(F)F)N=C(c2cccnc2)OC(N2CCOCC2)=N1 (stereo not drawn),"inconclusive: 0.891 µM [inhibitor, single point]",,
Cc1ccc(S(=O)(=O)c2c(C)nn(C(C)(C)C)c2OC(=O)c2cccs2)cc1,"inconclusive: 20 µM [inhibitor, partial curve, poor fit]",,

Structure (SMILES),Potency,"activity, negative = inhibition",outcome
O=C(CNC(=O)c1ccccc1)NCCc1nc2ccccc2[nH]1,"inconclusive: 14.1 µM [inhibitor, partial curve, poor fit]",,
CC(=O)O[C@H]1C(=O)[C@@]2(C)[C@H]([C@H](OC(=O)c3ccccc3)[C@]3(O)C[C@H](OC(=O)[C@H](O)C(NC(=O)c4ccccc4)c4ccccc4)C(C)=C1C3(C)C)[C@]1(OC(C)=O)CO[C@@H]1C[C@@H]2O (stereo partly drawn),"inconclusive: 15.8 µM [inhibitor, single point]",,
CCc1cccc2c3c([nH]c12)[C@@](CC)(CC(=O)O)OCC3,,inactive: -0.0299% [at 25.9 µM],
Cc1ccc(NC(=O)c2ccccc2NS(=O)(=O)c2ccc(Cl)s2)cc1,active: 39.8 µM,,
CCN(CC)c1ccc(/C=C/C(=O)c2ccc(Br)cc2)cc1,active: 8.91 µM,,
CC(C)=CCC/C(C)=C/CC/C(C)=C/CSCC(=O)O,inactive,,
Cc1ccc(S(=O)(=O)N(C)C)cc1NC(=S)NC(C)CCCC(C)C (stereo not drawn),"inconclusive: 7.08 µM [inhibitor, single point]",,
CN(C)c1ncnc2c1NC1=C(S2)C(=NCCCC(=O)O)CC(C)(C)C1,"inconclusive: 39.8 µM [inhibitor, single point]",,
CN(C)C(=O)Nc1ccc(Cl)c(Cl)c1,,,inactive
CCc1ccc(-n2cccc2/C=C2/C(=N)N3C(=NC2=O)SN=C3S(C)(=O)=O)cc1,active: 35.5 µM,,
C[C@@H]1CC=C[C@H]2[C@H]1C(=O)N(Cc1ccccc1)[C@H]2c1ccc(F)c(Br)c1,"inconclusive: 0.141 µM [inhibitor, partial curve, poor fit]",,
Cc1ccc(-n2c(Cc3cccn3C)nnc2SCC(=O)N2CCc3ccccc32)cc1,active: 0.224 µM,,
CCCCN1C(=O)C(NC(=O)CC(C)C)(C(F)(F)F)C2=C1CC(C)(C)CC2=O (stereo not drawn),"inconclusive: 0.141 µM [inhibitor, full curve, poor fit]",,
CC(=O)NCc1ccc(C(=O)CSc2nnc(-c3ccncc3)n2Cc2ccccc2)o1,"inconclusive: 10 µM [inhibitor, partial curve]",,
Cc1cc2nc3c(=O)[nH]c(=O)nc-3n(CC(O)C(O)C(O)CO)c2cc1C (stereo not drawn),active: 35.5 µM,,
COc1ccc2c(c1)O[C@H](c1ccc3c(c1)OCO3)[C@@H](OC(=O)NC1CCCC1)C2=O,,inactive: -2.36%,
C=C(C)C(O)/C=C/c1ccc(OC)cc1 (stereo not drawn),,inactive: -1.72% [at 11.5 µM],
NC(=O)C(=O)N/N=C/c1cccc(C(F)(F)F)c1,"inconclusive: 4.47 µM [inhibitor, partial curve, poor fit]",,
CC12CCC(CC1)C(C)(C)O2,"inconclusive: 39.8 µM [inhibitor, single point]",,
CCCCn1c(O)c(/C=C/C=C/C=Nc2ccccc2)sc1=S,active: 31.6 µM,,
Cc1ccc(S(=O)(=O)N(C)C)cc1NC(=O)COC(=O)/C(=C/c1ccc(F)cc1)c1cccs1,"inconclusive: 1 µM [inhibitor, full curve]",,
Cc1ccc2c(c1)N(CC(=O)N1CCCc3ccccc31)C(=O)C(C)O2 (stereo not drawn),"inconclusive: 0.708 µM [inhibitor, single point]",,
CCOC(=O)c1ccc(N2C(=O)C3C(C2=O)C(C(=O)c2ccc(Cl)cc2)N2CCCC32)cc1 (stereo not drawn),"inconclusive: 3.98 µM [inhibitor, single point]",,

# Quoted at random: three entries already listed, in no set order.
Structure (SMILES),Potency,"activity, negative = inhibition",outcome
C[C@@H]1CC=C[C@H]2[C@H]1C(=O)N(Cc1ccccc1)[C@H]2c1ccc(F)c(Br)c1,"inconclusive: 0.141 µM [inhibitor, partial curve, poor fit]",,
CCOC(=O)c1ccc(N2C(=O)C3C(C2=O)C(C(=O)c2ccc(Cl)cc2)N2CCCC32)cc1 (stereo not drawn),"inconclusive: 3.98 µM [inhibitor, single point]",,
Cc1ccc(NC(=O)c2ccccc2NS(=O)(=O)c2ccc(Cl)s2)cc1,active: 39.8 µM,,

# Further structures.

Structure (SMILES),Potency,"activity, negative = inhibition",outcome
Clc1cccc(Cl)c1/C=C/c1nc2ccccc2[nH]1,"inconclusive: 35.5 µM [inhibitor, single point]",,
O=C(O)c1ccccc1C(=O)Nc1nccs1,,inactive: -3.97%,
O=C1CCCC/C1=N\Nc1ccc(C2CCCCC2)cc1,,inactive: -9.48%,
CC(=O)OC1CCC2C3CCc4cc(O)ccc4C3CCC12C (stereo not drawn),active: 15.8 µM,,
COC(=O)[C@H](CCSC)NS(=O)(=O)c1ccccc1Br,"inconclusive: 3.16 µM [inhibitor, full curve]",,
COC(=O)c1cc2ccsc2n1Cc1nc(-c2ccc(OC)cc2)oc1C,active: 31.6 µM,,
Cc1cc(N)n(-c2ccc(C)c(C)c2)n1,,inactive: -6.27%,
CO/N=C(/C(=O)N[C@H]1C(=O)N2C(C(=O)O)=C(COC(C)=O)CSC12)c1csc(N)n1 (stereo partly drawn),,inactive: -1.4%,
O=C(NC1CCCCC1)c1cc2nc(-c3ccco3)cc(C(F)(F)F)n2n1,,inactive: -4.19%,
CC(Sc1nc(-c2ccccc2)cc(C(F)(F)F)n1)C(=O)NCCN1CCOCC1 (stereo not drawn),"inconclusive: 39.8 µM [inhibitor, single point]",,
Cc1ccc(CN2C(=O)N/C(=C\c3ccc(-c4ccc(C(=O)O)cc4C)o3)C2=O)cc1,"inconclusive: 25.1 µM [inhibitor, single point]",,
CCOCc1c(C(=O)NC2=Nc3ccccc3NC(CC)=C2C(=O)OCC)oc2ccccc12,"inconclusive: 22.4 µM [inhibitor, partial curve, poor fit]",,
COc1ccc(Nc2nc(-c3ccccc3)cs2)cc1,"inconclusive: 0.141 µM [inhibitor, full curve, poor fit]",,
O=C1ON=C(c2ccccc2)/C1=C\c1ccco1,"inconclusive: 35.5 µM [inhibitor, single point]",,
COc1ccc2cc(C(=O)Nc3ccc(Cl)cc3)sc(=O)c2c1OC,"inconclusive: 4.47 µM [inhibitor, single point]",,
C=CCN1c2ccccc2[C@]23C[C@@H](C(=O)OC)N(C(=O)COCc4ccccc4)C2=NC(C(=O)OC)=C(C(=O)OC)[C@H]13,,inactive: -8.66% [at 11.5 µM],
C=CCSC1=N/C(=C\C=C\c2ccco2)C(=O)S1,active: 12.6 µM,,
COc1ccc(-c2csc(NC(=O)c3ccoc3C)n2)cc1,"inconclusive: 3.55 µM [inhibitor, partial curve]",,
O=C1C(Cl)=C(NC2CCc3ccccc32)C(=O)c2ncccc21 (stereo not drawn),active: 11.2 µM,,
Cc1cc(C)cc(C(=O)NCC(=O)OCC(=O)N(C)C2CCS(=O)(=O)C2)c1 (stereo not drawn),,inactive: -14.1%,
CC[C@]1(O)C[C@@H]2CN(CCc3c([nH]c4ccccc34)[C@](C(=O)OC)(c3cc4c(cc3OC)N(C)[C@H]3[C@](O)(C(=O)OC)[C@@H](C(=O)OC)[C@@]5(CC)C=CCN6CC[C@@]43[C@@H]65)C2)C1,"inconclusive: 39.8 µM [inhibitor, single point]",,
c1cc(-c2noc(CC3CCCCC3)n2)ccn1,"inconclusive: 0.398 µM [inhibitor, partial curve, poor fit]",,
